Here are results for 51 substances from patent US10702592B2, “Peptides and combination of peptides for use in immunotherapy against NHL and other cancers” (Immatics Biotechnologies GmbH, priority 2016, dated 2020).

The data set deals with other tumor types (tumor samples vs normal tissues). Kind of data set: LC-MS detection / over-presentation of peptides on additional tumor types. Further details: species or system human. Particulars: for Other relevant organs/diseases: additional tumor types on which the peptide was found: over-presented on more than 5% of measured tumor samples, or presented on more than 5% with ratio of geometric means tumor vs normal tissues larger than 3; for Other relevant organs / diseases (additional tumor types with over-presentation): over-presented on >5% of measured tumor samples, or presented on >5% with ratio of geometric means tumor vs normal >3.

For the substance “230 (IMDDDSYGV; listed as Homo sapiens) [compound 230]”, the Other relevant organs/diseases result is listed as “CLL”.

Turning to “39 (QLLPQGIVPAL; listed as Homo sapiens) [compound 39]”, the Other relevant organs/diseases result is reported as “CLL, BRCA, OC, Urinary bladder cancer, Uterine Cancer” and the “Other relevant organs / diseases (additional tumor types with over-presentation)” value is given as “HCC”.

For the substance “197 (YLLTDNVVKL; listed as Homo sapiens) [compound 197]”, the Other relevant organs/diseases entry is recorded as “RCC, BRCA”.

In the case of “304 (ALIRLDDLFL; listed as Homo sapiens) [compound 304]”, the Other relevant organs/diseases entry was “RCC, CLL, Melanoma”.

On to “284 (KLQEQIHRV; listed as Homo sapiens) [compound 284]”, for which the Other relevant organs/diseases result was “AML”.

Take “68 (QIAAFLFTV; listed as Homo sapiens) [compound 68]”: the Other relevant organs/diseases entry is recorded as “CLL, Urinary bladder cancer, Uterine Cancer” and the “Other relevant organs / diseases (additional tumor types with over-presentation)” value was “AML”.

With “311 (YLHRQVAAV; listed as Homo sapiens) [compound 311]”, the Other relevant organs/diseases entry is on record as “SCLC, Melanoma, OC, Urinary bladder cancer”.

For the substance “281 (TLQTVPLTTV; listed as Homo sapiens) [compound 281]”, the Other relevant organs/diseases result is given as “CLL” and the “Other relevant organs / diseases (additional tumor types with over-presentation)” value is “AML”.

For the substance “42 (YLQDLVERA; listed as Homo sapiens) [compound 42]”, the Other relevant organs/diseases entry is “CLL, Uterine Cancer”.

For the substance “59 (RLHREVAQV; listed as Homo sapiens) [compound 59]”, the Other relevant organs/diseases result is listed as “Esophageal Cancer”.

On to “248 (NLLEQFILL; listed as Homo sapiens) [compound 248]”, for which the Other relevant organs/diseases entry is listed as “NSCLC, SCLC, RCC, Brain Cancer, CRC, HCC, CLL, AML, Melanoma, Urinary bladder cancer, Uterine Cancer” and the “Other relevant organs / diseases (additional tumor types with over-presentation)” value was “HNSCC”.

For “198 (GLLSAVSSV; listed as Homo sapiens) [compound 198]”, the Other relevant organs/diseases entry is “AML, Gallbladder Cancer, Bile Duct Cancer” and the “Other relevant organs / diseases (additional tumor types with over-presentation)” value is recorded as “HNSCC”.

“70 (VLIEILQKA; listed as Homo sapiens) [compound 70]”: the Other relevant organs/diseases result is given as “AML, BRCA, OC, Urinary bladder cancer, Uterine Cancer” and the “Other relevant organs / diseases (additional tumor types with over-presentation)” value is listed as “SCLC, HNSCC”.

As to “235 (SLDVYELFL; listed as Homo sapiens) [compound 235]”, the Other relevant organs/diseases result is on record as “CRC, BRCA, Melanoma, Esophageal Cancer, OC, Urinary bladder cancer, Uterine Cancer, Gallbladder Cancer, Bile Duct Cancer” and the “Other relevant organs / diseases (additional tumor types with over-presentation)” value is recorded as “HNSCC”.

Turning to “297 (ILQNGLETL; listed as Homo sapiens) [compound 297]”, the “Other relevant organs / diseases (additional tumor types with over-presentation)” value is listed as “Gallbladder Cancer, Bile Duct Cancer, AML”.

For the substance “SEQ ID NO.: 41 (ILASIFETV; listed as Homo sapiens)”, under “positive/measured samples”, the “peptide additionally detected on acute myelogenous leukemias” value is 4/18; the “peptide additionally detected on bile duct and gallbladder cancers” value is 2/17; the “peptide additionally detected on breast cancers” value was 1/18; the “peptide additionally detected on chronic lymphocytic leukemias” value is 1/17. For the same substance, where the note is “positive/measured samples”, the “peptide additionally detected on kidney cancers” value was 2/22, the “peptide additionally detected on lung cancers” value is given as 10/101, the “peptide additionally detected on melanomas” value is listed as 4/16 and the “peptide additionally detected on ovarian cancers” value was 1/20. Also, where the note is “positive/measured samples”, the “peptide additionally detected on pancreas cancers” value was 2/19, the “peptide additionally detected on pancreatic cancer cell lines” value is 3/20, the “peptide additionally detected on prostate cancers” value is on record as 1/38 and the “peptide additionally detected on urinary bladder cancers” value was 1/15.

Consider “205 (TLFYESPHL; listed as Homo sapiens) [compound 205]”, for which the “Other relevant organs / diseases (additional tumor types with over-presentation)” value was “CLL”.

Turning to “228 (IIAEYLSYV; listed as Homo sapiens) [compound 228]”, the Other relevant organs/diseases entry is “CLL” and the “Other relevant organs / diseases (additional tumor types with over-presentation)” value is “AML, HNSCC”.

Turning to “288 (RLAPEIVSA; listed as Homo sapiens) [compound 288]”, the Other relevant organs/diseases entry is “HCC”.

For “66 (KLAPIPVEL; listed as Homo sapiens) [compound 66]”, the “Other relevant organs / diseases (additional tumor types with over-presentation)” value is recorded as “CLL, AML”.

On to “209 (FLLDTISGL; listed as Homo sapiens) [compound 209]”, for which the Other relevant organs/diseases result is listed as “CRC, HCC, CLL, AML, BRCA, Melanoma, Urinary bladder cancer, Uterine Cancer”.

With “SEQ ID NO.: 1 (LLSGQLPTI; listed as Homo sapiens)”, where the note is “positive/measured samples”, the “peptide additionally detected on chronic lymphocytic leukemias” value was 1/17, the “peptide additionally detected on lung cancers” value is reported as 1/84, the “peptide additionally detected on ovarian cancers” value is on record as 1/20 and the “peptide additionally detected on pancreatic cancer cell lines” value is reported as 1/20.

For “309 (SLSFVSPSL; listed as Homo sapiens) [compound 309]”, the Other relevant organs/diseases entry was “CLL, BRCA, Esophageal Cancer, Uterine Cancer” and the “Other relevant organs / diseases (additional tumor types with over-presentation)” value is listed as “AML, HNSCC”.

On to “208 (FLAVSLPLL; listed as Homo sapiens) [compound 208]”, for which the Other relevant organs/diseases result is “CLL”.

For the substance “73 (YLGEEYPEV; listed as Homo sapiens) [compound 73]”, the Other relevant organs/diseases result was “SCLC, CRC, CLL, Melanoma, Uterine Cancer” and the “Other relevant organs / diseases (additional tumor types with over-presentation)” value is listed as “HNSCC”.

Regarding “245 (KLIQLPVVYV; listed as Homo sapiens) [compound 245]”, the Other relevant organs/diseases result is given as “CLL, BRCA, OC, Urinary bladder cancer”.

“250 (VLTNVGAAL; listed as Homo sapiens) [compound 250]”: the Other relevant organs/diseases result is “CLL, Uterine Cancer”.

Turning to “251 (VLYELFTYI; listed as Homo sapiens) [compound 251]”, the Other relevant organs/diseases entry was “CLL” and the “Other relevant organs / diseases (additional tumor types with over-presentation)” value is listed as “AML, HNSCC”.

As to “310 (VMAEAPPGV; listed as Homo sapiens) [compound 310]”, the Other relevant organs/diseases entry is reported as “Uterine Cancer”.

For “282 (YLLEQGAQV; listed as Homo sapiens) [compound 282]”, the Other relevant organs/diseases entry is “SCLC, HCC, CLL, Melanoma” and the “Other relevant organs / diseases (additional tumor types with over-presentation)” value is on record as “AML, HNSCC”.

As to “234 (NLQRTVVTV; listed as Homo sapiens) [compound 234]”, the Other relevant organs/diseases entry is recorded as “RCC, CLL, Uterine Cancer”.

Turning to “301 (LQFDGIHVV; listed as Homo sapiens) [compound 301]”, the Other relevant organs/diseases result is listed as “SCLC, Brain Cancer” and the “Other relevant organs / diseases (additional tumor types with over-presentation)” value is on record as “HNSCC”.

For “127 (HLMEENMIVYV; listed as Homo sapiens) [compound 127]”, the Other relevant organs/diseases entry was “Melanoma”.

Regarding “48 (KILDEDLYI; listed as Homo sapiens) [compound 48]”, the Other relevant organs/diseases entry is recorded as “CLL, BRCA, Melanoma, Esophageal Cancer, Gallbladder Cancer, Bile Duct Cancer” and the “Other relevant organs / diseases (additional tumor types with over-presentation)” value is reported as “AML, HNSCC”.

In the case of “57 (LQIGDFVSV; listed as Homo sapiens) [compound 57]”, the Other relevant organs/diseases result was “SCLC, CLL”.

With “193 (SLADSMPSL; listed as Homo sapiens) [compound 193]”, the Other relevant organs/diseases result is recorded as “BRCA, Uterine Cancer”.

In the case of “206 (SAVSGQWEV; listed as Homo sapiens) [compound 206]”, the Other relevant organs/diseases entry is on record as “CLL”.

Turning to “247 (KVLEMETTV; listed as Homo sapiens) [compound 247]”, the Other relevant organs/diseases entry is “Uterine Cancer” and the “Other relevant organs / diseases (additional tumor types with over-presentation)” value was “BRCA”.

Consider “63 (ALIEEAYGL; listed as Homo sapiens) [compound 63]”, for which the Other relevant organs/diseases result is listed as “CLL”.

As to “278 (FLLFINHRL; listed as Homo sapiens) [compound 278]”, the Other relevant organs/diseases result is on record as “CLL”.

As for “283 (ALMPVTPQA; listed as Homo sapiens) [compound 283]”, the Other relevant organs/diseases entry is recorded as “CLL”.

Consider “314 (LIDDKGTIKL; listed as Homo sapiens) [compound 314]”, for which the “Other relevant organs / diseases (additional tumor types with over-presentation)” value is on record as “Urinary Bladder Cancer”.

In the case of “130 (VIFSYVLGV; listed as Homo sapiens) [compound 130]”, the Other relevant organs/diseases entry was “AML, Uterine Cancer”.

Consider “210 (FLAEQFEFL; listed as Homo sapiens) [compound 210]”, for which the Other relevant organs/diseases entry is on record as “CLL”.

As to “129 (SLFEASQQL; listed as Homo sapiens) [compound 129]”, the Other relevant organs/diseases entry is “CLL, Melanoma, Uterine Cancer, Gallbladder Cancer, Bile Duct Cancer”.

On to “223 (FLQDIPDGLFL; listed as Homo sapiens) [compound 223]”, for which the Other relevant organs/diseases entry is on record as “CLL”.

In the case of “293 (GLAMVEAISYV; listed as Homo sapiens) [compound 293]”, the Other relevant organs/diseases entry was “CLL, Urinary bladder cancer, Uterine Cancer”.

Take “58 (QLAPFLPQL; listed as Homo sapiens) [compound 58]”: the Other relevant organs/diseases result was “OC, Urinary bladder cancer”.

For “261 (FLPETRIMTSV; listed as Homo sapiens) [compound 261]”, the Other relevant organs/diseases result is on record as “SCLC, CLL, Melanoma, OC, Urinary bladder cancer”.

With “241 (FIPDFIPAV; listed as Homo sapiens) [compound 241]”, the Other relevant organs/diseases result was “SCLC”.

“SEQ ID NO.: 5 (VLQGLTFTL; listed as Homo sapiens)”: under “positive/measured samples”, the “peptide additionally detected on bile duct and gallbladder cancers” value is listed as 2/17; the “peptide additionally detected on breast cancers” value is 1/18; the “peptide additionally detected on chronic lymphocytic leukemias” value is 1/17; the “peptide additionally detected on lung cancers” value is 4/101. For the setting “positive/measured samples”, the “peptide additionally detected on melanomas” value is given as 2/16, the “peptide additionally detected on ovarian cancers” value is given as 2/20 and the “peptide additionally detected on urinary bladder cancers” value is recorded as 1/15.
